{
  "source": "patent US12582717B2",
  "about": "“Protein based excipient for active pharmaceutical ingredients” (ROUSSELOT B.V., priority 2016, dated 2026)",
  "origin": "cited, not measured here",
  "settings": "cited from earlier work",
  "note": "Read-outs that look alike come from different tables or passages of the source.",
  "data": [
    {"molecule": "CC(C)Cc1ccc(C(C)C(=O)O)cc1", "note": "(centres unmarked) [Ibuprofen]", "values": [
      {"measurement": "solubility", "setting": "pH 4.5", "result": "low solubility"},
      {"measurement": "solubility", "setting": "pH 6.8", "result": "high solubility"}
    ]}
  ]
}
